In PubChem BioAssay AID1347076 (National Center for Advancing Translational Sciences (NCATS), 2019):
About 13,000 (3.2%) of roughly 400,000 compounds were called active. The shares of active, inactive and inconclusive entries below differ from those in the screen. The call rests on the fitted dose curve; in most records, active means well fitted cell-killing curve with a large enough effect; inconclusive means small, poorly fitted or top-dose-only effect, or effect the other way; inactive means flat fitted curve, though single readings scatter. Where the call is inconclusive, the potency comes from a doubtful curve fit.

Assay: qHTS assay for MDR1-selective chemotherapeutics: Primary screen using the drug-selected MDR subline cells KB-V1; further: nearly all actives have a fitted effect of over 60% in size
Conditions: KB-V1 MDR cells viability, CellTiter-Glo, 72 h; activity change, negative = cytotoxicity: at 46.1 µM (top of the series)
Outline: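 Luminescent ATP read-out (CellTiter-Glo, 10 min) measures survival of drug-selected KB-V1 MDR cells after 72 h, 37 degrees C compound exposure. Medium: phenol-red-free DMEM, 10% FBS. Values from fitted concentration-response curves.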
On the % scale 0 is the no-effect control and ±100 the full control effect; potency means the concentration at half of the fitted maximal effect.

Compound | activity change, negative = cytotoxicity | Potency
Cc1cccc(/C=C/C(=O)c2ccc([N+](=O)[O-])o2)c1 | inactive: 11.7% | 
COc1ccccc1OCCn1cc(/C=C(\C#N)C(=O)NCc2cccs2)c2ccccc21 |  | active: 18.4 µM
COCCCN1C(=O)C(CC(=O)NCCc2ccccn2)CC(C(=O)N(C(C)C)C(C)C)=C1C (stereo unspecified) | inactive: -5.86% | 
COc1cc(C(=O)Nc2ccc(S(=O)(=O)N3CCc4ccccc43)cc2)cc(OC)c1OC |  | active: 5.8 µM
CC(C)(C)NC(=O)COC(=O)c1ccccc1OCC(=O)Nc1ccc(Br)cc1 | inactive: -22.3% | 
CC1CCN(C(=S)NC(=O)C2CCCCC2)CC1 | inactive: -8.5% | 
Cc1oc(-c2ccc(Cl)cc2)nc1CN1CCCC(C(=O)NCc2ccco2)C1 (stereo unspecified) |  | inconclusive: 4.11 µM [cytotoxic, partial curve, poor fit]
Cc1cc(C)cc(NC(=O)c2cccc(NC(=O)c3ccco3)c2)c1 | inactive: -20.4% | 
COc1cccc(-c2cc3nc(-c4ccccc4)cc(N4CCCC(O)C4)n3n2)c1 (stereo unspecified) | inactive: 18.5% | 
CN(CC(=O)Nc1ccccc1Cl)C(=O)CN1C(=O)C2CC=CCC2C1=O (stereo unspecified) | inactive: 0% | 
Nc1nc(SCC(=O)Nc2cc(Cl)ccc2Cl)n[nH]1 |  | inconclusive: 23.1 µM [cytotoxic, single point]
Cc1nc(NCCc2ccccc2)c2oc3ccccc3c2n1 |  | active: 23.1 µM
N#Cc1ccc(C(=O)N(Cc2ccccc2)c2ccccc2)cc1 |  | inconclusive: 20.6 µM [rising, single point]
COc1ccc(S(=O)(=O)NC(=O)C2(C)CCN2C(=O)CCC2CCCC2)cc1OC (stereo unspecified) | inactive: 4.74% | 
CC(C)(C)C(=O)CN1C(=O)NC(c2ccccc2)(c2ccccc2)C1=O |  | inconclusive: 7.31 µM [cytotoxic, partial curve]
CN(C(=O)COC(=O)c1ccccc1C(=O)N1CCN(c2ccccc2)CC1)c1ccccc1 |  | inconclusive: 4.11 µM [cytotoxic, full curve]
CC(C)OCCCNC(=O)c1c(N)n(/N=C/c2ccccn2)c2nc3ccccc3nc12 |  | inconclusive: 1.3 µM [cytotoxic, full curve]
CCOC(=O)c1c(C)oc2nc(C)nc(Nc3cc(C)ccc3OC)c12 |  | inconclusive: 16.4 µM [rising, single point]
CCc1ccc(CCC(=O)Nc2ccc(OC)cc2)o1 | inactive: 6.51% | 
CCCCc1nc(NCCO)c(C#N)c2c1CCCC2 |  | inconclusive: 6.51 µM [cytotoxic, partial curve]
CCn1nc(C)cc1C(=O)N1CCCC(N2CCN(c3ccccc3OC)CC2)C1 (stereo unspecified) |  | inconclusive: 18.4 µM [cytotoxic, partial curve]
FC(F)Oc1ccc(NC(=S)NCc2ccccc2)cc1Cl |  | inconclusive: 29.1 µM [cytotoxic, single point]
O=C(CCN1C(=O)/C(=C/c2cccc(Br)c2)SC1=S)Nc1cccnc1 |  | inconclusive: 32.6 µM [rising, partial curve, poor fit]
CCc1nnc(NC(=O)CSc2nc3c([nH]c4ccccc43)c(=O)n2-c2ccc(OC)cc2)s1 |  | inconclusive: 32.6 µM [rising, single point]

Compound | activity change, negative = cytotoxicity | Potency
CC(C)c1ccc(/C=C(\C#N)c2nc(-c3ccc(O)cc3)cs2)cc1 |  | inconclusive: 29.1 µM [cytotoxic, partial curve, poor fit]
COc1cc(-c2nn3c(C4CCCCC4)nnc3s2)cc(OC)c1OC |  | inconclusive: 29.1 µM [cytotoxic, single point]
Cc1ccc(S(=O)(=O)N(CC(=O)NCc2cccnc2)C2CCCCC2)cc1 |  | inconclusive: 29.1 µM [cytotoxic, single point]
CCOc1cccc(/C=N/NC(=O)c2cc(-c3cccn3C)n[nH]2)c1O |  | inconclusive: 11.6 µM [cytotoxic, partial curve]
O=C(CSc1nnnn1-c1ccc(O)cc1)c1ccc(F)cc1 |  | inconclusive: 32.6 µM [cytotoxic, single point]
COc1ccc(/C=N/Nc2nc(-c3ccc(Cl)cc3)cc(C(F)(F)F)n2)cc1OC |  | active: 7.31 µM
Cc1ccc(Cn2c(C(=O)NCCCN3CCOCC3)cc3sccc32)cc1 |  | active: 4.61 µM
COc1ccc(OC)c(C(=O)CSc2nc3c(c(=O)n(C)c(=O)n3C)n2C(C)C)c1 |  | inconclusive: 16.4 µM [cytotoxic, partial curve]
CC/C(=C\c1ccc(N(C)C)cc1)c1ccncc1 |  | active: 10.3 µM
C=COC(=O)NC1CCc2cc(OC)c(OC)c(OC)c2-c2ccc(SC)c(=O)cc21 (stereo unspecified) |  | inconclusive: 0.0164 µM [cytotoxic, full curve, poor fit]
CC(/C=N/NC(=O)c1cc(C(C)(C)C)[nH]n1)=C\c1ccccc1 |  | inconclusive: 20.6 µM [cytotoxic, single point]
Oc1cccc2c(CC(O)c3c[nH]c4ccccc34)ccnc12 (stereo unspecified) |  | inconclusive: 0.651 µM [cytotoxic, full curve]
CCOC(=O)C1CCCN(C(=O)c2cc(-c3cccs3)oc2C)CC1 (stereo unspecified) | inactive: -0.946% | 
CCN(CC)S(=O)(=O)c1ccc2c(c1)N(CC(=O)NCCN1CCOCC1)C(=O)CO2 | inactive: 0% | 
CCOc1ccc(NC(=O)Cn2c(=O)n(Cc3ccc(C(=O)NCc4ccc5c(c4)OCO5)cc3)c(=O)c3ccccc32)cc1 |  | inconclusive: 25.9 µM [rising, single point]
Cc1noc(C)c1CN1C(=O)NC2(CCc3ccccc3C2)C1=O (stereo unspecified) |  | inconclusive: 14.6 µM [cytotoxic, partial curve]
CCOC(=O)c1sc(C)c2c(=O)n(CC(=O)c3ccc(Br)cc3)nnc12 |  | inconclusive: 18.4 µM [cytotoxic, partial curve, poor fit]
CCOCCCNC(=S)NC1CC2CCC(C1)N2Cc1ccccc1 (stereo unspecified) | inactive: -14.7% | 
CCCCOc1ccc(N(CC(=O)NCc2ccccc2)C(=O)c2csnn2)cc1 |  | inconclusive: 18.4 µM [cytotoxic, single point]
CCCCOc1ccc(/C=c2\sc3ncnn3c2=O)cc1 |  | inconclusive: 23.1 µM [rising, single point]
O=C(OC(C(=O)NC1CCCCC1)c1ccc(C(F)(F)F)cc1)c1ccco1 (stereo unspecified) |  | inconclusive: 20.6 µM [cytotoxic, single point]
O=C(c1ccccc1CCc1ccccc1)N1CCCC1 | inconclusive: 4.63% | 
Cc1ccc([N+](=O)[O-])cc1NC(=S)NC(=O)CC(C)(C)C |  | active: 18.4 µM
NS(=O)(=O)c1ccc(N2N=C(c3ccccc3)CC2c2ccccc2Cl)cc1 (stereo unspecified) | inactive: 0% | 

Compound | activity change, negative = cytotoxicity | Potency
CC(Sc1ccc(S(=O)(=O)N2CCN(C)CC2)cn1)C(=O)NC1(C#N)CCCCC1 (stereo unspecified) | inactive: -14.4% | 
CN(CC(=O)Nc1ccccc1F)Cc1cccs1 |  | inconclusive: 29.1 µM [cytotoxic, partial curve, poor fit]
Cc1cc(C)n2nc(N)c(N=Nc3ccccc3)c2n1 |  | inconclusive: 25.9 µM [cytotoxic, partial curve, poor fit]
CCCCOc1ccc(C(=O)Nc2ccc3c(c2)CCCN3S(=O)(=O)c2ccc(C)cc2)cc1 |  | inconclusive: 2.59 µM [cytotoxic, partial curve, poor fit]
CCCCn1nnnc1SCC(=O)Nc1ccc2c(c1)OCCO2 |  | inconclusive: 18.4 µM [cytotoxic, single point]
COc1ccc(CCNS(=O)(=O)c2cn(C)c(=O)n(C)c2=O)cc1 | inactive: 6.86% | 
Fc1ccc(-n2ncc3c(N4CCN(Cc5ccccc5)CC4)ncnc32)cc1 | inactive: -15.5% | 
CC(C)N(Cc1ccccc1)C(=S)NCc1ccccc1 |  | inconclusive: 18.4 µM [cytotoxic, single point]
O=C(N/N=C\c1cc(Br)cs1)c1ccncc1 | inactive: 8.36% | 
COc1ccc(NC(=O)COC(=O)c2cc([N+](=O)[O-])ccc2N2CCOCC2)cc1 |  | inconclusive: 18.4 µM [cytotoxic, single point]
O=C1N(Cc2cccnc2)C[C@@H]2C[C@@H](c3ccccc3C#Cc3ccccc3)N3CCC[C@@]123 |  | inconclusive: 14.6 µM [cytotoxic, single point]
CC(=O)c1ccc(N2CCN(C(=O)C3CCCN(S(=O)(=O)c4c(C)[nH]c(=O)[nH]c4=O)C3)CC2)cc1 (stereo unspecified) | inactive: 6.67% | 
CC(=O)OC1CCC2C3CCc4cc(OP(=O)(N5CC5)N5CC5)ccc4C3CCC12C (stereo unspecified) | inactive: -16.2% | 
Cc1ccc(-n2c(C)nnc2SCC(=O)N2CCc3ccccc3C2)cc1 |  | inconclusive: 0.0164 µM [rising, full curve]
COc1ccccc1NS(=O)(=O)c1cc(NC(=O)c2ccc(Cl)nc2)ccc1Cl |  | active: 8.2 µM
O=C(c1ccccc1)N1CCN(C2c3cccc4cccc(c34)C2NS(=O)(=O)c2ccccc2)CC1 (stereo unspecified) |  | inconclusive: 14.6 µM [cytotoxic, partial curve, poor fit]
CCc1ccc(CNC(=O)c2ccc3c(c2)nc2n3CCCCC2)cc1 | inactive: -7.35% | 
COc1ccc(OC)c(CCNC(=O)CN2C(=O)COc3ccc(S(=O)(=O)N4CCCCCC4)cc32)c1 |  | inconclusive: 7.31 µM [cytotoxic, partial curve]
Cc1cc(C)cc(NS(=O)(=O)c2ccc(F)cc2)c1 | inactive: 1.11% | 
Cc1scc(C(=O)NCc2ccco2)c1-c1ccccc1 |  | inconclusive: 23.1 µM [cytotoxic, single point]
O=C(Nc1c2c(nn1-c1ccc(Cl)cc1)CS(=O)(=O)C2)c1cccc(Cl)c1 |  | inconclusive: 29.1 µM [cytotoxic, single point]
CCCCCCCn1c(=O)c(C(=O)OC)c(N)c2ccccc21 |  | active: 14.6 µM
CC1=C(C(=O)Nc2ccccc2)C(c2cccs2)n2nc(SCc3ccccc3)nc2N1 (stereo unspecified) | inactive: 2.68% | 

5 consecutive records out of the list so far:
Compound | activity change, negative = cytotoxicity | Potency
CN(CC(=O)Nc1ccccc1F)Cc1cccs1 |  | inconclusive: 29.1 µM [cytotoxic, partial curve, poor fit]
Cc1cc(C)n2nc(N)c(N=Nc3ccccc3)c2n1 |  | inconclusive: 25.9 µM [cytotoxic, partial curve, poor fit]
CCCCOc1ccc(C(=O)Nc2ccc3c(c2)CCCN3S(=O)(=O)c2ccc(C)cc2)cc1 |  | inconclusive: 2.59 µM [cytotoxic, partial curve, poor fit]
CCCCn1nnnc1SCC(=O)Nc1ccc2c(c1)OCCO2 |  | inconclusive: 18.4 µM [cytotoxic, single point]
COc1ccc(CCNS(=O)(=O)c2cn(C)c(=O)n(C)c2=O)cc1 | inactive: 6.86% | 
